Results are given in words; binding and its absence hold for the method and conditions named. In cells and extracts the contact can be indirect. Where a sequence is shown, tags or fusion partners need not be part of it.
Molecular target: Myc-Slimb^ΔWD40 (truncated Slimb protein lacking its WD40 domains) (Drosophila)
Assay: co-IP; S2 cells co-transfected with tagged Akt (Myc or Flag) and a tagged F-box protein (Flag-Slimb, Myc-Slimb^ΔWD40 or Flag-Ago); lysate immunoprecipitated, protein A/G beads, Western blot

binding: no binding
B1: Flag-Akt, transfected S2 cells (protein, UniProt Q8INB9 1-611)
chain: MNYLPFVLQRRSTVVASAPAPGSASRIPESPTTTGSNIINIIYSQSTHPNSSPTSGSAEKFSWQQSWPSRTSAAPTHDSGTMSINTTFDLSSPSVTSGHALTEQTQVVKEGWLMKRGEHIKNWRQRYFVLHSDGRLMGYRSKPADSASTPSDFLLNNFTVRGCQIMTVDRPKPFTFIIRGLQWTTVIERTFAVESELERQQWTEAIRNVSSRLIDVGEVAMTPSEQTDMTDVDMATIAEDELSEQFSVQGTTCNSSGVKKVTLENFEFLKVLGKGTFGKVILCREKATAKLYAIKILKKEVIIQKDEVAHTLTESRVLKSTNHPFLISLKYSFQTNDRLCFVMQYVNGGELFWHLSHERIFTEDRTRFYGAEIISALGYLHSQGIIYRDLKLENLLLDKDGHIKVADFGLCKEDITYGRTTKTFCGTPEYLAPEVLDDNDYGQAVDWWGTGVVMYEMICGRLPFYNRDHDVLFTLILVEEVKFPRNITDEAKNLLAGLLAKDPKKRLGGGKDDVKEIQAHPFFASINWTDLVLKKIPPPFKPQVTSDTDTRYFDKEFTGESVELTPPDPTGPLGSIAEEPLFPQFSYQGDMASTLGTSSHISTSTSLASMQ
